The source of these data is paper PMC10163288.

This is one part of the list.

B1: il2ra_site1_3nfp_normal_mot_HHH_b1_00232_af2_000000283_0001_22_38_H_._HHH_b2_06365_0001_0000100005_0000001_0_af2pred_0001_af2pred_1 (protein)
chain: SSSSSSDAEELALELAQEAYERGDEERARKLLERFLEDLKRFNNEDNFEEVEELLKELSSSSSSS
B2: il2ra_site2_2erj_normal_mot_6bd1339e93f6fdda22195c76da45ec5d_0001_000000136_0001_37_51_H_._HHH_b2_00810_af2_0001_0000100002_0000001_0_1_af2pred_0001_1_af2pred_s … (protein)
chain: SSSSDEEYREEVEELLEEAKEIEDPEEAASVLSEAMELAHEGRDEELLRLVSKVFTRLARGSSSS
B3: il2ra_site2_2erj_sap_33_mot_HHH_b2_01204_af2_000000056_0001_19_34_H_._HHH_b2_00547_0001_0000600024_0000001_0_0001 (protein)
chain: SSSSSDELREAYELANILSHLVARNDREEFERISEEFEELVERLDSENAREILESLKRLISSSSS
B4: il2ra_site2_2erj_sap_29_mot_ems_p1-14H-GABBL-16H-GABBL-15H_0014_0001_0001_0001_000000124_0001_40_55_H_._31027dcbc75156a1ce7eef07f04df53c_0001_af2_0001_000070001 … (protein)
chain: LEEEVLRAASIAIELAEKFSDDPEIFRLVAEAFTALARALEENDEEKIREVIEKIEEIKEEADSS
B5: il2ra_site2_3nfp_sap_17_mot_HHH_b1_02574_af2_000000209_0001_1_20_H_._2243060a2d62806e8f4e40d139fea760_0001_0001_0000500010_0000001_0_0001 (protein)
chain: SSSSNAEEYLKAVLELIRLALEEGDRETAEKLIKLLKQAIEDNNDEEARKELERLEEEVNSSSSS
B6: il2ra_site1_3nfp_normal_mot_HHH_b2_02159_000000237_0001_1_17_H_._ems_3hM_790_0001_0000300041_0000001_0_af2pred_0001_af2pred (protein)
chain: SSDEFFEELVRRVTKLAEEKNDEEVRELAEKALELWKEARENRDHEAAHEALRIVAKLQNLVLSS
B7: il2ra_site1_3nfp_sap_16_mot_1cdf5118dc85af3c372083cb498ffdc5_0001_af2_000000279_0001_1_12_H_._cff26900b2948c323735a169404cbef0_0001_1_0001_0000500014_0000001_1_ … (protein)
chain: DLEELEKEARELGNPAIQELLELIKEAERTKDPELSREILKLVAKLLLRGLIPPEFVEELAKLLA
B8: il2ra_site2_2erj_normal_mot_c2bf78bdce995293a161f7082e24b401_0001_af2_000000082_0001_17_32_H_._HHH_b2_01862_0001_0000700049_0000001_0 (protein)
chain: SSSSSDVEEEVQRLLEEAEEAYEEGDLELVYELANEALHLASRHQDEEAQRLIWEVFERLSSSSS
B9: il2ra_site2_2erj_normal_mot_HHH_b2_00789_000000198_0001_40_54_H_._HHH_b2_03822_0001_0000200007_0000001_0 (protein)
chain: SSSSSSEDEERVRELLEQAEETSDLEEAYRLLVEALQVAYESGDEELQRLVMEVAERLANSSSSS
B10: il2ra_site1_1z92_sap_20_mot_HHH_b1_06868_000000124_0001_1_20_H_._HHH_b2_03533_0001_0000400029_0000001_0_0001 (protein)
chain: SSSSSSSAEELFELLRRQLEMARSERTRKWALELLEAVARLANNPELEELVEELKEEFSSSSSSS
B11: il2ra_site1_3nfp_sap_9_mot_HHH_b1_07180_af2_000000260_0001_1_19_H_._HHH_b1_08471_0001_0000200015_0000001_0_0001_af2pred_0001_af2pred_1_swapped (protein)
chain: DEELRELAELILKGDPEKFKELLEEIKRRIGDPTQIRAFLRFIEASAKVAGNPEAEEIVKEIEEK
B12: il2ra_site2_2erj_sap_27_mot_HHH_b1_06157_000000296_0001_22_38_H_._HHH_b1_03854_0001_0000100004_0000001_0_0001 (protein)
chain: SSSSSEEEVQELLKEAKELLEEGNPEEAERVLSRAFELAFELNDPELASKIIELMASIAHSSSSS
B13: il2ra_site2_3nfp_sap_26_mot_HHH_b1_00015_000000185_0001_19_35_H_._HHH_b2_06138_0001_0000600047_0000001_0_0001_af2pred_0001_af2pred (protein)
chain: SSSSSSDEEEEVEKLLEEAKHIEDEFELYAVLADAARIAFELKDEELRRLVKEVRHELSSSSSSS
B14: il2ra_site2_3nfp_normal_mot_HHH_b2_02333_af2_000000028_0001_1_19_H_._HHH_b1_01192_af2_0001_0000200009_0000001_1 (protein)
chain: SSSDVAELANEAFELLQQLREEGDPELREEIEELLEEAKELARSERERRILELLEAALLLLSSSS
B15: il2ra_site1_1z92_normal_mot_HHH_b2_06133_af2_000000132_0001_1_18_H_._HHH_b2_06097_0001_0000100003_0000001_0 (protein)
chain: SSSSSHEEEVERLLREAEEAAERGDNRKWSELLRRALRVAAENRDQELRRKIEEFARELNSSSSS
B16: il2ra_site1_2b5i_normal_mot_HHH_b2_04910_000000118_0001_1_19_H_._HHH_b1_07011_0001_0000200008_0000001_0_af2pred_0001_af2pred (protein)
chain: SSSSSELAKRILELLEEANELFKNGNPEEAREVLQEALELAEELGSRSARKFVEAALRILSSSSS
B17: il2ra_site1_1z92_sap_10_mot_HHH_b1_02460_000000277_0001_1_17_H_._HHH_b2_06201_af2_0001_0000900039_0000001_0_0001 (protein)
chain: TLREELREELEEAAKRGTLEEVVEKLLEMAERDAGDPRLAAQYLKQLLKRLGDPEAKKVLEELRR
B18: il2ra_site2_3nfp_sap_21_mot_HHH_b2_05281_000000198_0001_39_56_H_._HHH_b1_02391_0001_0000600024_0000001_0_0001 (protein)
chain: SSSSSSDNSELISRVIHLRKEGNPEEARELLEEAIELAQENNDEDSVRYLEAVLALLRSSSSSSS
B19: il2ra_site2_2erj_sap_27_mot_46479c6699afdbd8d5d5faf00326b0b9_0001_1_af2_000000112_0001_34_47_H_._HHH_b2_01914_0001_0000400016_0000001_0_0001_af2pred_0001_af2pre … (protein)
chain: SSSSDARELAELARWAARLLEEAGNPEEAREFLRKVLEILEELGNEEAQELVERLLEEIKNSSSS

The target of the experiment is il2ra, P01589. Description: yeast display titration.
In the case of B1, the “apparent Kd” value is “inactive: no binding seen”.

On to B2, for which the “apparent Kd” value is “inactive: no binding seen”. Under B3 stands “inactive: no binding seen”; under B4, “inactive: no binding seen”; under B5, “inactive: no binding seen”.

Take B6: the “apparent Kd” value is “inactive: no binding seen”. Turning to B7, the “apparent Kd” value was “inactive: no binding seen”. The entry for B8 is “inactive: no binding seen”.

For the molecule B9, the “apparent Kd” value is “inactive: no binding seen”. The entry for B10 is “inactive: no binding seen”; for B11 it is “inactive: no binding seen”; for B12 it is “inactive: no binding seen”.

For B13, the “apparent Kd” value was “inactive: no binding seen”. The entry for B14 is “inactive: no binding seen”; for B15 it is “inactive: no binding seen”; for B16 it is “inactive: no binding seen”. Under B17 stands “inactive: no binding seen”. The entry for B18 is “inactive: no binding seen”. Consider B19, for which the “apparent Kd” value is “inactive: no binding seen”.
